Like-named read-outs stand apart in the source and are kept apart here. Structures were worked out from names or drawings and are uncertain.
Columns and labels:
NAMPT = NAMPT (Homo sapiens, UniProt P43490); assay: Biochemical inhibition assay: NAMPT enzymatic reaction, NMN quantified by mass spectrometry
A2780 cells = assay: In-vitro cell proliferation assay (SRB), A2780 cells; type: cell-based
[1] = read-out: Biochem IC50 uM, NAMPT enzymatic reaction
[2] = read-out: Biochem IC50, NAMPT enzymatic reaction
[3] = read-out: A2780 IC50, 72 hours, SRB assay
[4] = read-out: Biochem IC50 uM, NAMPT enzymatic assay
[5] = read-out: A2780 IC50 uM, 72 hours, SRB

Protein sequences, listed by entry. Tags and fused reporters are not part of them.
UniProt P43490, whole entry: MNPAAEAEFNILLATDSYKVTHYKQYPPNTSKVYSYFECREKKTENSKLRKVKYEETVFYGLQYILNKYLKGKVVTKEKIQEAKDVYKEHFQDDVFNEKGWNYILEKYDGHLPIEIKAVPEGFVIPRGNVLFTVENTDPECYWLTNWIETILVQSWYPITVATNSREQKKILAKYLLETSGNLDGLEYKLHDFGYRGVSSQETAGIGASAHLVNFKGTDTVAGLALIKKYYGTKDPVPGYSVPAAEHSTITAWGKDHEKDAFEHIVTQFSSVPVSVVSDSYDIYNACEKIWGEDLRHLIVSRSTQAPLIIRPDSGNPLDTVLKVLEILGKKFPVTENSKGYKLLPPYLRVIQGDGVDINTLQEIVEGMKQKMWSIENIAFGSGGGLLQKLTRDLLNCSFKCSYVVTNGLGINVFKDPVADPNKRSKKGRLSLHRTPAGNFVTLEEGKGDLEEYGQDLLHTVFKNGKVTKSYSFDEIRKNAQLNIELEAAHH

Row | SMILES | IC50 (NAMPT; [2]) [µM] | IC50 (A2780 cells; [3]) [µM] | IC50 (A2780 cells; [5]) [µM] | further results
1 | CCCCOc1cccc(F)c1S(=O)(=O)c1ccc(CNC(=O)c2ccc3nccn3c2)cc1 |  |  |  | IC50 (NAMPT; [1]): 0.0053 µM
2 | O=C(NCc1ccc(S(=O)(=O)Nc2ccccc2OCCO)cc1)c1cc2cnccc2[nH]1 | 19.6 | 23.9 |  | 
3 | Cc1cn(C)c(S(=O)(=O)c2ccc(CNC(=O)c3cnc4nccn4c3)cc2)n1 |  |  | 1 to 10 | IC50 (NAMPT; [4]): 0.0316 µM
4 | CCOc1cc(F)ccc1S(=O)(=O)c1ccc(CNC(=O)c2cnc3nccn3c2)cc1 |  |  | 0.0143 | 
5 | CC(C)NC(=O)c1cccc(S(=O)(=O)c2ccc(CNC(=O)c3cc4ccncc4s3)cc2)c1 |  |  |  | IC50 (NAMPT; [4]): 0.0027 µM
6 | O=C(NCc1ccc(S(=O)(=O)c2ccccc2)cc1)c1ccc2nnnn2c1 | 0.447 | > 30 |  | 
7 | COc1cc(F)c(F)cc1S(=O)(=O)c1ccc(CNC(=O)c2cc3ccncc3o2)cc1 |  |  | 0.0259 | IC50 (NAMPT; [1]): 0.0281 µM
8 | O=C(NCc1ccc(S(=O)(=O)c2ccccc2)cc1)c1c[nH]c2cnccc12 | > 10 | > 10 |  | 
9 | CN(C)c1ncc(S(=O)(=O)c2ccc(CNC(=O)c3ccc4nccn4c3)cc2)cn1 |  |  | 0.0036 | IC50 (NAMPT; [4]): 0.0229 µM
10 | O=C(CCc1cccnc1)Nc1ccc(S(=O)(=O)N2CCCCC2)cc1 | 0.003 |  |  | 
11 | O=C(NCc1ccc(S(=O)(=O)c2ccccc2)cc1)c1cnc2nc[nH]c2c1 | 5.78 | > 10 |  | 

From patent publication US12336981B2, “Compounds and compositions for the inhibition of NAMPT” (Valo Health, Inc., priority 2010, dated 2025)
